These are yes or no findings as the source states them, for the method shown. In cells and extracts the contact can be indirect. Some entries that bind do so weakly or less than the wild type.

Sequences of proteins named here, by UniProt entry; tags and fusion partners are left off.
UniProt P42224: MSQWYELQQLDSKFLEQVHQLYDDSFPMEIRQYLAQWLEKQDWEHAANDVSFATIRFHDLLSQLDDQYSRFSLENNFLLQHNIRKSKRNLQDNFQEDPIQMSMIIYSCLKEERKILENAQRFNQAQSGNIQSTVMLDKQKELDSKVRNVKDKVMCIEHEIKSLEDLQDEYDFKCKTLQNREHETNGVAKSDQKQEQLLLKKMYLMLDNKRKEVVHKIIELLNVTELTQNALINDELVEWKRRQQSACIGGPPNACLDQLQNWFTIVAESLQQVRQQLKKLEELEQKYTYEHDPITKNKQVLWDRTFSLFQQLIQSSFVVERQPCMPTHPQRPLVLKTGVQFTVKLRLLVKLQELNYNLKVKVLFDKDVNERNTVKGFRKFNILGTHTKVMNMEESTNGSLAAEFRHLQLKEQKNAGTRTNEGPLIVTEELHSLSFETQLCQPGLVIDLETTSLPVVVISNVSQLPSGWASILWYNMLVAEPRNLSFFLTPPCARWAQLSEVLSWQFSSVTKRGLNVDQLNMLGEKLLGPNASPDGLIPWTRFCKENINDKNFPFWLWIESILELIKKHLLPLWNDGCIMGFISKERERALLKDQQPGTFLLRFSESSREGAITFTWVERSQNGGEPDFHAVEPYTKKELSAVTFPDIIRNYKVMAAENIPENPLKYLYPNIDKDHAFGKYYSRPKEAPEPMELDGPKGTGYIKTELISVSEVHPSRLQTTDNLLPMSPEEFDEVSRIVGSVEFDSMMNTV
UniProt O14508: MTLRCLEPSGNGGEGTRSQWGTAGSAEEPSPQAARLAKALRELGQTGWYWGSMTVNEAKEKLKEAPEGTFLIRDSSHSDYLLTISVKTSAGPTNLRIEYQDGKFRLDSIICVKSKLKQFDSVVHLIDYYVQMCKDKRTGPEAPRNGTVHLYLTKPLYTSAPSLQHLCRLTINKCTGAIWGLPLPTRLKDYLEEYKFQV

Assay [1] concerns the target T1, Slingshot Homolog 1 (SSH1) (UniProt Q8WYL5).
T1 sequence: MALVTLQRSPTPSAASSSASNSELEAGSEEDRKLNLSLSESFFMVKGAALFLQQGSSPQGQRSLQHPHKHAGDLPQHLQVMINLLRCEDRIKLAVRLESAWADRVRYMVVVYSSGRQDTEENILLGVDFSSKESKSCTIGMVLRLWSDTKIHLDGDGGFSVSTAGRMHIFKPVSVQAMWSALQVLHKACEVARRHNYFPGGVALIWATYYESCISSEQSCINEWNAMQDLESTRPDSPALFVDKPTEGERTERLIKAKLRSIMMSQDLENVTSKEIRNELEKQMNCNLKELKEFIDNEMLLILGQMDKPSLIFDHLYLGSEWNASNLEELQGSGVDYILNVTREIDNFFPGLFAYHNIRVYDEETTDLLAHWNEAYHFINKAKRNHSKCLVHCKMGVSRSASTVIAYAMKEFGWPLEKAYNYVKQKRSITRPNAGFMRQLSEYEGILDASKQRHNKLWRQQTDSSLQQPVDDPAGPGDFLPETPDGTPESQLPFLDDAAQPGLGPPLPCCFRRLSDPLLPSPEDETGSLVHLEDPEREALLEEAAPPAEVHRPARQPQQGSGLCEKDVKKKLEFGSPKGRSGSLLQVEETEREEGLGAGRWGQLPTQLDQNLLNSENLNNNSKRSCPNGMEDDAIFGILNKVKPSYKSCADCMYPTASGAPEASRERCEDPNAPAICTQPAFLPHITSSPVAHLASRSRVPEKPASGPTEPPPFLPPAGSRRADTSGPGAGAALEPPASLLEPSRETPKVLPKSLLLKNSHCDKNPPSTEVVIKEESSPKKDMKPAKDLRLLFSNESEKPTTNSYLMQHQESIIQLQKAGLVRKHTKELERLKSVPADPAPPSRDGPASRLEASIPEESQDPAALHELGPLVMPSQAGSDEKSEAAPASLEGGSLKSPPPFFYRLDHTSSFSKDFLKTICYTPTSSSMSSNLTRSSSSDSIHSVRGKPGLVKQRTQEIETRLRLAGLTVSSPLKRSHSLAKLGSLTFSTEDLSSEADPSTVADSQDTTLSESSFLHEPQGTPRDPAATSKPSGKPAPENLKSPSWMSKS
Description: co-IP; co-immunoprecipitation; cells, bait and antibodies not told in the main text (Supplementary Fig. S5).

For a further assay, the target named is T2, NOD1 (UniProt Q9Y239).
T2 sequence: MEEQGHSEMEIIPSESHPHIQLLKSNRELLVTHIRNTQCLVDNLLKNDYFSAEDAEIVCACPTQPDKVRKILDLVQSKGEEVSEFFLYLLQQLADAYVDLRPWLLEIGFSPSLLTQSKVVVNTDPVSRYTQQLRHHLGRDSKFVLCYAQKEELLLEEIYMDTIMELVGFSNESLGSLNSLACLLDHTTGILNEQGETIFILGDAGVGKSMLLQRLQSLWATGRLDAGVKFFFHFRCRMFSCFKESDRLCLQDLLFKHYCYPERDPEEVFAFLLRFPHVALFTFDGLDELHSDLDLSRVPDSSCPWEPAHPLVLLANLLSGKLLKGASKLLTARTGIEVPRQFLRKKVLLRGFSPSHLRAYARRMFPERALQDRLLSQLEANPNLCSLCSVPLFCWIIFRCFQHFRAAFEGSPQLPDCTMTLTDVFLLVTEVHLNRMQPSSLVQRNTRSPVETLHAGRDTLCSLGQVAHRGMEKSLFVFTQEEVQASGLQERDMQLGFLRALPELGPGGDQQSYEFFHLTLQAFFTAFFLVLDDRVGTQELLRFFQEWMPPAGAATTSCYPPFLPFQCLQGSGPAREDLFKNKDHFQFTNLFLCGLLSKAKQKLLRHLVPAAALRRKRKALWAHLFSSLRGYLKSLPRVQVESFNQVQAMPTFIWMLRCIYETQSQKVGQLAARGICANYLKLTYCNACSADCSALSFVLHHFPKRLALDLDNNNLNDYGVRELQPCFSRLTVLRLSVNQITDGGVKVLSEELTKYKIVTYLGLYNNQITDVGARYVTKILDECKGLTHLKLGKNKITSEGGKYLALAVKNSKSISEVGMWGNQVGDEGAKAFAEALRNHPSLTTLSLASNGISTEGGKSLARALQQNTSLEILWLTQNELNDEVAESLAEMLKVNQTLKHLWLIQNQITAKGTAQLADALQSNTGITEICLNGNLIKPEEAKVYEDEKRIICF
The assay is described as above.

Assay [2] deals with STAT1 (human (endogenous in HEK293T)) (UniProt P42224). The assay can be described thus: co-IP; co-immunoprecipitation in HEK293T cells; endogenous STAT1; bait and antibodies not told in the main text (Supplementary Fig. S4).

SOCS2 (from UniProt O14508 1-198): the binding entry (in assay [1]; with NOD1) was “binds” each time.

B1: NOD1 (protein, UniProt Q9Y239 1-953)
chain: T2 sequence
B1: the binding result in assay [2] is recorded as “no binding”.

B2: Slingshot Homolog 1 (SSH1) (enzyme, UniProt Q8WYL5 1-1049)
chain: T1 sequence
Regarding B2, the binding result in assay [2] is given as “no binding”.
